# Measurements: the supplement of paper PMC5949888
# Most values lie at the floor of the assay. Slopes are relative: functional sequences can read slightly below zero.
# Tested on: Saccharomyces cerevisiae PS128 hsf1 delta, HSF1(1-493) fusion
# Assay: growth estimate (transactivation domain function in HSF1 fusion, heat-shock survival) (a.u. (slope of normalised read count over time)); higher = stronger growth at 37°C, i.e. more transactivation activity
# Settings: library: random library
# Description: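 Random 60-nt DNA library encoding peptides of up to 20 aa, fused to the C-terminus of yeast HSF1 residues 1-493 (C-terminal TAD deleted) and expressed from the native HSF1 promoter on a CEN plasmid in hsf1-deleted S. cerevisiae PS128. Cells were selected at 37°C on -trp 5-FOA plates for 0, 2, 4, 6 and 8 days and amplicons were sequenced. Growth estimate is the slope of a robust linear fit of total-sum-normalised read counts (normalised to the first time point) over time, using at least 2 replicates. Sequences are classed functional (TAD activity) above a threshold of -0.13, set from stop-codon control sequences.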
row,Substance,growth estimate
1,TVIYGE,< -0.25
2,DLNYLMTYRLERRSPALLRA,-0.25
3,ACQYAWMRTQTRESQETGHP,< -0.25
4,EDPPTLCAKLRVYNWHMCRA,< -0.25
5,CWIMRATPEDVQRRSQSPEC,< -0.25
6,WGHAFGRSSSARASSKM,< -0.25
7,PNKGDPHS,< -0.25
8,TVLNKDRDHW,< -0.25
9,KGHHLCRAVYGTSSVAGVEL,< -0.25
10,SNRQGERKAKAPSSVFIVYW,< -0.25
11,LMIGGRNWPSAHANCP,< -0.25
12,YGSKADDACQQHFVQRRMSK,< -0.25
13,SHSAHAEMYLIQLLTK,< -0.25
14,SAVQEG,< -0.25
15,ANEPKRRWAGFPGLHLSRGC,< -0.253
16,RHHYHG,< -0.25
17,NLNYHPDTPIARGGHTGWSG,< -0.25
18,RLCKHNESGGMRFFRPQVDI,< -0.25
19,LCMKASKSAQDKAPRLP,< -0.25
20,CIAPYRWVALENPRTRLF,< -0.25
21,NCGTVSESRPRKILSRISHN,< -0.25
22,RCERRSGLFAPWGLWRRSHP,< -0.25
23,GYPLLWVKG,-0.187
24,GMQGPEASSELGGVTYAVEA,< -0.25

row,Substance,growth estimate
1,LQAIVLTV,< -0.25
2,NVTTVRAALSGSALLADGS,< -0.25
3,GVDTCRLCITAPGVQCVSHI,< -0.25
4,VEKITGPTSQRFRTLVY,< -0.25
5,GMGAFMFLC,< -0.25
6,TNDAGLVPRGPTRTSSAMFW,-0.208
7,VVLITSPKLCRSVGARGLER,< -0.25
8,LMHAVCDEEIDAKWRGVFKA,< -0.25
9,RVDLDVDKKGLSKNQAQPGP,< -0.25
10,GGGRRRLGVFICHNGMSSVK,< -0.25
11,WFIAHRRRSTRAVGSTYIRF,< -0.25
12,LVPKNE,< -0.25
13,VPIDYLPVLWDLP,0.0249
14,LEGTSNATNLRYSL,< -0.25
15,SIDI,< -0.25
16,RDSIQPHWSFSVSQRIWTRG,< -0.25
17,EYGLLSGVVSSRSCRTS,< -0.25
18,GLEVAFRLARMGLSS,< -0.25
19,QLRMSLLQLSFERAWTEIHV,< -0.25
20,GKVWEGPGIQRQFSTECPRV,< -0.25
21,IYLRTNPKSPVHPSYRRWLT,-0.173
22,TWPGFGTRQC,< -0.25
23,LTGVLPEGPGTGRAVGRSAP,< -0.25
24,AKSLFLL,< -0.25

row,Substance,growth estimate
1,DLGAFGRVLIGKCYHLSVLF,< -0.25
2,SSSPATKSPLVEELVSWAVG,< -0.25
3,SAIPQVGAVMQH,< -0.25
4,CNPRLL,< -0.25
5,VVKCCLRFDWELNHGPEVPR,-0.178
6,KRN,< -0.25
7,GAN,< -0.25
8,SSPLMWHTIPTSEHQNSEAG,< -0.25
9,AAAKICPIPRLIPALGLRFH,< -0.25
10,YGGATVV,< -0.25
11,LSVDLVRYQYYLRREIFLDS,< -0.25
12,MAVISAPQPYVI,< -0.25
13,DTSCRRKH,< -0.25
14,ERTPPRS,< -0.25
15,RTRLSSIVGAQMWVWSFRTS,< -0.25
16,PDTARL,< -0.25
17,FHHRSPDLEFLLRLFRASLT,< -0.25
18,GISEDGKSRGESEASAGRGC,< -0.25
19,LILFPR,< -0.25
20,ATRNNSGLRRQSAVGRVLTD,< -0.25
21,RTSRLRTALRRRGSRLTDSW,< -0.25
22,VHSGTSPVACRNASDNHTRA,< -0.25
23,CDASLSRWTITTLSRNLRME,< -0.25
24,VDGQTSMVGIATVYSILLYG,< -0.25

# Part of the list above, bar-delimited:
row | Substance | growth estimate
5 | CWIMRATPEDVQRRSQSPEC | < -0.25
7 | PNKGDPHS | < -0.25
9 | KGHHLCRAVYGTSSVAGVEL | < -0.25
12 | YGSKADDACQQHFVQRRMSK | < -0.25
17 | NLNYHPDTPIARGGHTGWSG | < -0.25
21 | NCGTVSESRPRKILSRISHN | < -0.25
1 | LQAIVLTV | < -0.25
3 | GVDTCRLCITAPGVQCVSHI | < -0.25
4 | VEKITGPTSQRFRTLVY | < -0.25
5 | GMGAFMFLC | < -0.25
10 | GGGRRRLGVFICHNGMSSVK | < -0.25
11 | WFIAHRRRSTRAVGSTYIRF | < -0.25
16 | RDSIQPHWSFSVSQRIWTRG | < -0.25
20 | GKVWEGPGIQRQFSTECPRV | < -0.25
22 | TWPGFGTRQC | < -0.25
24 | AKSLFLL | < -0.25
4 | CNPRLL | < -0.25
5 | VVKCCLRFDWELNHGPEVPR | -0.178
10 | YGGATVV | < -0.25
11 | LSVDLVRYQYYLRREIFLDS | < -0.25
19 | LILFPR | < -0.25
24 | VDGQTSMVGIATVYSILLYG | < -0.25

# Later entries

row,Substance,growth estimate
1,IYVCKVGWHGRK,< -0.25
2,AQRRYAYLLQ,< -0.25
3,SLTRVVRKILVAW,< -0.25
4,CVTIKGQVAAPSAVIAPG,< -0.25
5,LDGAKIPVNLTGYDESERLS,< -0.25
6,ATITNYGSGAERFWNSVLRT,< -0.25
7,GGLLVR,< -0.25
8,SQCELTPHIYLAGSPGLPLF,< -0.25
9,ERRLHSLRSRIGWTIEPI,< -0.25
10,NGTVIPRD,< -0.25
11,AKFGLVDDSV,< -0.25
12,SIWWEARCRTRGRSAFY,< -0.25
13,PPSPERL,< -0.25
14,RIDLSSQFRTRN,< -0.25
15,LPNLD,< -0.25
16,INRCIVGSKV,< -0.25
17,LKYVSDEVKAAFATGTDYP,< -0.25
18,YNGFGESLCWRFRTVVFYSA,< -0.25
19,IRMVLVMRSIKMWIICLELA,< -0.25
20,VLPQFV,< -0.25
21,RMLNIRTRAYLRSLLERNDG,-0.245
22,LLLM,< -0.25
23,SGVLMIVFVYTRVAVGRGCP,< -0.25
24,LRTLI,< -0.25
